PubChem BioAssay AID1259254 | NCATS, 2017
This is a random part of about 59,000 deposited reagents. About 1,550 of them (2.6%) count as active. 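G2 share is only a proxy for re-replication; each gene was hit by three separate siRNAs, and active genes were retested.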 Raw values vary from plate to plate and are shown uncorrected. Reagents against one gene are numbered here. No sequences are given here. Not given: the amount of reagent.

Purpose: 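Gene knock-downs that lead to re-replication, shown by excess G2 DNA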 (primary screen)
Cells: human HCT116 colorectal cancer cells
Knock-down reagent: single siRNA against human genes
Time to read-out: 3 days
Read-out: 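Imaged Hoechst DNA stain sorts each cell into a cycle phase by DNA amount; per plate, G2 fraction set to 0% for non-targeting and 100% for GMNN siRNA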
Reading the numbers: G2 robust z-score and G2 cells, % of GMNN control: higher = more G2 cells, more excess DNA replication; raw share of cells in G2: higher = larger share of cells with G2 DNA content
Call rule: 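Active siRNAs have a G2 robust z of 5 or more median absolute deviations over the median, which in these data means about 38% or higher of GMNN control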

Gene | reagent | G2 robust z-score | G2 cells, % of GMNN control | raw share of cells in G2 (%) | activity call
CSAG1 | 1 | -0.319 | 0.726 | 2.99 | inactive
CSAG1 | 2 | -0.178 | 1.72 | 4.22 | inactive
CSAG1 | 3 | -0.557 | -0.951 | 2.64 | inactive
FXYD6 | 1 | 0.0143 | 3.07 | 6.41 | inactive
FXYD6 | 2 | -0.786 | -2.56 | 3.92 | inactive
FXYD6 | 3 | -0.291 | 0.92 | 4.73 | inactive
COPB1 | 1 | 2.36 | 19.6 | 12 | inactive
COPB1 | 2 | 2.75 | 22.3 | 13.1 | inactive
COPB1 | 3 | -0.104 | 2.24 | 4.87 | inactive
CAVIN4 | 1 | -0.941 | -3.66 | 2.73 | inactive
CAVIN4 | 2 | 3.23 | 25.7 | 14.5 | inactive
CAVIN4 | 3 | 2.25 | 18.8 | 11.7 | inactive
OLFM1 | 1 | 0.311 | 5.16 | 5.51 | inactive
OLFM1 | 2 | -0.65 | -1.61 | 5 | inactive
OLFM1 | 3 | -1.22 | -5.61 | 4.27 | inactive
CPNE4 | 1 | 0.479 | 6.34 | 7.36 | inactive
CPNE4 | 2 | 0.159 | 4.09 | 6.2 | inactive
CPNE4 | 3 | 4.06 | 31.5 | 21 | inactive
IZUMO1R | 1 | 0.235 | 4.62 | 5.42 | inactive
IZUMO1R | 2 | -0.948 | -3.7 | 3.05 | inactive
IZUMO1R | 3 | -0.157 | 1.86 | 4.41 | inactive
WWC2 | 1 | 1.93 | 16.6 | 11.3 | inactive
WWC2 | 2 | -0.684 | -1.85 | 3.5 | inactive
WWC2 | 3 | -0.401 | 0.147 | 2.42 | inactive
VEGFB | 1 | -0.567 | -1.02 | 4.14 | inactive
VEGFB | 2 | 0.329 | 5.28 | 7.83 | inactive
VEGFB | 3 | -0.878 | -3.21 | 3.07 | inactive
C19orf84 | 1 | 1.61 | 14.3 | 8.04 | inactive
C19orf84 | 2 | -1.28 | -6.02 | 1.81 | inactive
C19orf84 | 3 | -0.195 | 1.59 | 3.41 | inactive
WDR37 | 1 | -1.01 | -4.1 | 3.38 | inactive
WDR37 | 2 | 3.21 | 25.5 | 14.7 | inactive
WDR37 | 3 | -0.399 | 0.161 | 3.23 | inactive
PLEKHA5 | 1 | -1.23 | -5.66 | 1.58 | inactive
PLEKHA5 | 2 | -0.15 | 1.91 | 5.08 | inactive
PLEKHA5 | 3 | -0.408 | 0.0969 | 3.22 | inactive
LINC01120 | 1 | 1.02 | 10.1 | 7.24 | inactive
LINC01120 | 2 | 0.279 | 4.93 | 5.55 | inactive
LINC01120 | 3 | 3.76 | 29.4 | 17.3 | inactive
TAC4 | 1 | -0.748 | -2.29 | 2.46 | inactive
TAC4 | 2 | -0.646 | -1.58 | 3.01 | inactive
TAC4 | 3 | -0.223 | 1.4 | 3.61 | inactive
TXLNGY | 1 | -0.794 | -2.62 | 3.24 | inactive
TXLNGY | 2 | 0.858 | 9 | 6.13 | inactive
TXLNGY | 3 | 1.2 | 11.4 | 5.86 | inactive
TXLNGY | 4 | -0.912 | -3.45 | 2.33 | inactive
TXLNGY | 5 | 0.433 | 6.01 | 5.19 | inactive
TXLNGY | 6 | 4.12 | 31.9 | 13.4 | inactive
OR52E2 | 1 | -0.155 | 1.88 | 4.84 | inactive
OR52E2 | 2 | 1.06 | 10.4 | 6.43 | inactive
OR52E2 | 3 | -0.0647 | 2.51 | 2.55 | inactive
PPARG | 1 | 0.0579 | 3.37 | 6.82 | inactive
PPARG | 2 | 2.22 | 18.6 | 10.9 | inactive
PPARG | 3 | 2.24 | 18.7 | 10.2 | inactive
PPME1 | 1 | 0.226 | 4.56 | 8.02 | inactive
PPME1 | 2 | 0.204 | 4.41 | 5.87 | inactive
PPME1 | 3 | -0.15 | 1.91 | 4.53 | inactive
TTC4 | 1 | 2.05 | 17.4 | 12.8 | inactive
TTC4 | 2 | -0.442 | -0.144 | 3.84 | inactive
TTC4 | 3 | 1.93 | 16.5 | 9.19 | inactive
AKAP13 | 1 | -0.0708 | 2.47 | 7.36 | inactive
AKAP13 | 2 | 1.36 | 12.6 | 8.17 | inactive
AKAP13 | 3 | -0.716 | -2.07 | 3.46 | inactive
MZT2B | 1 | 0.0341 | 3.21 | 5.71 | inactive
MZT2B | 2 | -1.32 | -6.32 | 0.649 | inactive
MZT2B | 3 | 1.79 | 15.6 | 10.9 | inactive
PCDHA4 | 1 | 1 | 10 | 8.51 | inactive
PCDHA4 | 2 | -0.00571 | 2.93 | 7.71 | inactive
PCDHA4 | 3 | -0.888 | -3.28 | 3.26 | inactive

Entries above whose gene name starts with V or v (3):
Gene | reagent | G2 robust z-score | G2 cells, % of GMNN control | raw share of cells in G2 (%) | activity call
VEGFB | 1 | -0.567 | -1.02 | 4.14 | inactive
VEGFB | 2 | 0.329 | 5.28 | 7.83 | inactive
VEGFB | 3 | -0.878 | -3.21 | 3.07 | inactive
